PubChem BioAssay AID1224830 – NIAID, 2016

Purpose: 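Genes whose knock-down alters the TNF-alpha reporter response to LPS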 (primary screen)
System: human THP-1 monocytic leukaemia cells, TNF dual-luciferase reporter clone, PMA-differentiated to macrophage-like cells
Reagents: siRNA pool against human genes, 50 nM
Duration: LPS for 4 h, given about 3 days after siRNA transfection
Conditions: bacterial LPS (TLR4 ligand), 10 ng/ml
Measured: 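TNF firefly reporter luminescence divided by renilla, normalised to the plate median, then turned into a robust z-score for each replicate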
Reading the numbers: TNF reporter robust z-score: higher = stronger TNF reporter response to LPS
Hit rule: 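a well is active when its z-score exceeds 2.8 or falls below -1.5; control wells carry no call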
Here is an unselected part of about 18,000 deposited reagents. In the full data, about 2,900 (16%) got an active call. 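Calls are made per well; low scores hint the gene aids the LPS response, high scores that it dampens it.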 Repeated entries: four replicate wells of each siRNA pool. Reagent sequences are not shown.

Against PTH1R, the values are TNF reporter robust z-score 1.38; inactive. For PTH1R the deposit lists TNF reporter robust z-score 2; inactive. Knock-down of PTH1R came out at: TNF reporter robust z-score -0.22; inactive. With knock-down of PTH1R, the record shows TNF reporter robust z-score 0.95; inactive. NLRP14 gave TNF reporter robust z-score -0.81; inactive. Depletion of NLRP14 gave: TNF reporter robust z-score 0.48; inactive.

Silencing of NLRP14 gave: TNF reporter robust z-score -0.57; inactive. For NLRP14 the deposit lists TNF reporter robust z-score -0.44; inactive. C16orf86 showed TNF reporter robust z-score 0.51; inactive. Silencing of C16orf86 gave: TNF reporter robust z-score 1.27; inactive. Against C16orf86, the values are TNF reporter robust z-score -0.43; inactive. C16orf86 gave TNF reporter robust z-score -0.55; inactive.

Silencing of CNNM1 resulted in: TNF reporter robust z-score -0.37; inactive. CNNM1 scored TNF reporter robust z-score 0.01; inactive. For CNNM1 the deposit lists TNF reporter robust z-score -0.86; inactive. Depletion of CNNM1 resulted in: TNF reporter robust z-score 0.22; inactive. Depletion of KMT5A gave: TNF reporter robust z-score -0.77; inactive. Against KMT5A, the values are TNF reporter robust z-score -0.58; inactive.

Knock-down of KMT5A came out at: TNF reporter robust z-score -0.12; inactive. Against STK26, the entry reads TNF reporter robust z-score 0.69; inactive. With knock-down of STK26, the screen gave TNF reporter robust z-score -0.82; inactive. Against STK26, the values are TNF reporter robust z-score -0.55; inactive. STK26 gave TNF reporter robust z-score 0.98; inactive. Against LRR1, the entry reads TNF reporter robust z-score -0.84; inactive.

LRR1 showed TNF reporter robust z-score -0.42; inactive. With knock-down of LRR1, the record shows TNF reporter robust z-score -0.47; inactive. LRR1 gave TNF reporter robust z-score -0.17; inactive.

Part of the list above in another layout:
Target gene	TNF reporter robust z-score	call
C16orf86	1.27	inactive
C16orf86	-0.43	inactive
C16orf86	-0.55	inactive
CNNM1	-0.37	inactive
CNNM1	0.01	inactive
CNNM1	-0.86	inactive
CNNM1	0.22	inactive

Further entries:
After knock-down of NSUN5P1, the record shows TNF reporter robust z-score -0.94; inactive. Silencing of NSUN5P1 came out at: TNF reporter robust z-score -0.93; inactive. Silencing of SARS2 resulted in: TNF reporter robust z-score -1.59; active. Against SARS2, the entry reads TNF reporter robust z-score -0.25; inactive. SARS2 scored TNF reporter robust z-score -1.46; inactive. SARS2 gave TNF reporter robust z-score -0.59; inactive.

With knock-down of TUBG1, the record shows TNF reporter robust z-score -0.2; inactive. After knock-down of TUBG1 the results were TNF reporter robust z-score 0.26; inactive. Depletion of TUBG1 gave: TNF reporter robust z-score 0.47; inactive. For TUBG1, the values are TNF reporter robust z-score -0.5; inactive. With knock-down of TMPRSS11F, the record shows TNF reporter robust z-score 1.33; inactive. TMPRSS11F showed TNF reporter robust z-score 0.3; inactive.

Against TMPRSS11F, the values are TNF reporter robust z-score 0.24; inactive. For TMPRSS11F the deposit lists TNF reporter robust z-score 1.27; inactive. Knock-down of XPA gave: TNF reporter robust z-score 0.28; inactive. After knock-down of XPA, the record shows TNF reporter robust z-score -1.07; inactive. XPA showed TNF reporter robust z-score -1.18; inactive. XPA scored TNF reporter robust z-score -0.58; inactive.

For SLC29A1, the entry reads TNF reporter robust z-score -1.8; active. SLC29A1 scored TNF reporter robust z-score -1.08; inactive. Against SLC29A1, the values are TNF reporter robust z-score -1.47; inactive. SLC29A1 scored TNF reporter robust z-score -0.82; inactive.
